Experimental data as given in PubChem BioAssay AID1671190 (National Center for Advancing Translational Sciences (NCATS), 2021).
Where “and” joins values, the source holds several entries; their conditions need not be identical. Equal values may be shown once. Out of some 580,000 compounds screened, about 6,100 (1.1%) were called active. This list was built around the results that the source calls inconclusive (neither active nor inactive); the mix of calls is not that of the screen. Calls follow the shape of the dose curve; as a rule, active = well fitted inhibition curve with a large enough effect; inconclusive = small, poorly fitted or top-dose-only effect, or another doubt; inactive = no such curve, though single readings can be large or run the other way. Where the call is inconclusive, the potency comes from a doubtful curve fit.

Chains of the proteins cited; added tags and fusions are not shown. Lines headed by an entry give the natural chain unless they say otherwise; changes in a name come on top.
UniProt P18054: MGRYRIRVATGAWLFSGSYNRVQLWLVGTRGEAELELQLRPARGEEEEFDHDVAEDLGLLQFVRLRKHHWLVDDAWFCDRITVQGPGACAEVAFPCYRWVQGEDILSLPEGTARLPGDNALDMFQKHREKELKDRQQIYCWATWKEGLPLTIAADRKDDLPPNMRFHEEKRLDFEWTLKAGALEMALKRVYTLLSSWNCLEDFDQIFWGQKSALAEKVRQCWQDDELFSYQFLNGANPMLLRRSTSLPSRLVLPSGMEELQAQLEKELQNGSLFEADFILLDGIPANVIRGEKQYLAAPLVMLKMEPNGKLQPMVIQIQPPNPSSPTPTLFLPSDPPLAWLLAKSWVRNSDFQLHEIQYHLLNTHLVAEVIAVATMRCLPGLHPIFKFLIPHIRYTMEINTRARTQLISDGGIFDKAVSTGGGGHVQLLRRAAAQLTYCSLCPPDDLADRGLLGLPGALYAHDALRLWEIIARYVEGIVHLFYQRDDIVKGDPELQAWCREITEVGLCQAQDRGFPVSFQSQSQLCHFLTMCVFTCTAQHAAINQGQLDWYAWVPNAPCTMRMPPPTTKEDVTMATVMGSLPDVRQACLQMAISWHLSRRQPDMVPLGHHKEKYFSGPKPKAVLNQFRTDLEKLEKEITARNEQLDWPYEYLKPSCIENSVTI

Target: Polyunsaturated fatty acid lipoxygenase ALOX12 (Homo sapiens) (UniProt P18054)
Test: Primary qHTS assay for inhibitors of human arachidonate 12S-lipoxygenase (ALOX12): Round 2
Conditions: purified 12hLO, xylenol orange hydroperoxide absorbance; activity change, negative = inhibition: at 108 µM (top of the series) unless noted
Summary of the method: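 Purified human 12hLO (150 nM final) in 25 mM Hepes, 0.01% Triton X-100, pH 7.0 was preincubated 15 min at room temperature with compound. Then 40 uM arachidonic acid was added, 30 min. Hydroperoxide was read by Fe-XO absorbance ratio 573/405 nm.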
% is scaled to controls: 0 for no effect and ±100 for the full control effect; potency is read from the fitted curve at half-maximal effect.

Row | SMILES | Potency | activity change, negative = inhibition
1 | O=C(Nc1cc(=O)[nH]c2nc(-c3ccccc3)nn12)c1ccccc1Cl | inactive | 
2 | COc1ccccc1C(=O)Nc1ccc(-c2nnc(SCC(=O)O)n2C)cc1 | inconclusive: 44.7 µM [inhibitor, partial curve, poor fit] | 
3 | CCc1c(C)nc2ncnn2c1Sc1ccccc1NC(=O)c1ccc2c(c1)OCO2 | inconclusive: 0.141 µM [inhibitor, full curve, poor fit] | 
4 | Cc1cccc(NC(=O)CSCC(=O)Nc2ccc(S(=O)(=O)N3CCCCC3)cc2)c1 | inconclusive: 50.1 µM [inhibitor, partial curve, poor fit] | 
5 | COc1ccc(-c2nc(C3CC3)nc3c2CCN([S+](=O)([O-])c2cccc(OC)c2)CC3)cc1 |  | inconclusive: -34.1% [inhibitor]
6 | O=C(COc1ccc(-n2cnnn2)cc1)N1CCN(S(=O)(=O)c2ccc3c(c2)CCC3)CC1 | inconclusive: 44.7 µM [inhibitor, partial curve] | 
7 | S=c1[nH]nc(-c2ccc3ccccc3n2)n1-c1ccccc1 | inconclusive: 44.7 µM [inhibitor, partial curve, poor fit] | 
8 | Cc1ccc(-c2noc(C3CCCN(S(=O)(=O)c4ccc5ccccc5c4)C3)n2)o1 (stereo not drawn) | inconclusive: 10 µM [inhibitor, full curve] | 
9 | O=C(NCCN1CCN(c2ccc([N+](=O)[O-])cc2)CC1)NCc1ccccc1 | inactive | 
10 | O=C1c2c(-c3ccc(Br)cc3)noc2CCN1Cc1cn(-c2ccc(Cl)cc2)nn1 | inactive | 
11 | Cc1cccnc1C(c1ccc(F)cc1)N(C)C(=O)C1CCN(CCOc2ccc(Cl)cc2Cl)CC1 (stereo not drawn) | inconclusive: 89.1 µM [inhibitor, partial curve, poor fit] | 
12 | Cc1ccc(Cl)cc1-n1ncc2c(=O)n(CC(=O)Nc3ccc(F)cc3Cl)cnc21 | inconclusive: 35.5 µM [inhibitor, partial curve, poor fit] | 
13 | CCOCCCNC(N)=S | inconclusive: 39.8 µM [inhibitor, partial curve, poor fit] | 
14 | CCOC(=O)c1cnn(-c2ccccc2)c1-n1cccc1 | inactive | 
15 | CN1CCC(NC[C@H]2Cn3c(-c4ccc(F)cc4)cnc3CO2)CC1 | inactive | 
16 | CCc1noc(C)c1C(=O)Nc1nc2ccc(F)cc2s1 | inactive | 
17 | COc1ccc(-c2noc3c2-c2nc(C4CCCCC4)sc2CC3)cc1 | inconclusive: 100 µM [inhibitor, single point] | 
18 | COc1ccc(C(=O)Nc2nc3c(s2)C[C@@H]2[C@](C)(CO)[C@H](O)CC[C@@]2(C)[C@@H]3CC(=O)NC(C)C)cc1 | inactive | 
19 | COC(=O)c1ccc(O)c(Br)c1 | inactive | 
20 | Cc1ccc2nc3n(c2c1)[C@@H](CNCc1ccc(C(=O)O)cc1)COC3 | inactive | 
21 | Cc1ccc(O)c(-c2cc(-c3cccc(Br)c3)n[nH]2)c1 | inconclusive: 79.4 µM [inhibitor, partial curve, poor fit] | 
22 | C=CCC[C@H](Cc1ccc(F)cc1)C(=O)OC[C@@H](Cc1c[nH]c2ccccc12)NC(=O)[C@H](CC=C)CC(=O)NCCO | inconclusive: 112 µM [inhibitor, partial curve, poor fit] | 

Row | SMILES | Potency | activity change, negative = inhibition
23 | COc1cc(/C=C/C(=O)c2ccc(CC(C)C)cc2)cc(OC)c1O | inconclusive: 126 µM [inhibitor, single point] | 
24 | COC(=O)C(CCSC)NC(=O)Cn1ncc2c(=O)oc3ccccc3c21 (stereo not drawn) | inactive | 
25 | O=C(NCc1ccco1)c1cccc2c1C(=O)c1ccc(N3CCC(N4CCCCC4)CC3)cc1S2(=O)=O | inconclusive: 79.4 µM [inhibitor, single point] | 
26 | CCCCOc1ccc2c(=O)c(Oc3ccccc3)c(C)oc2c1 | inconclusive: 25.1 µM [inhibitor, full curve, poor fit] | 
27 | COc1ccc(CNc2cc(-c3cccc(C#N)c3)ncn2)c(OC)c1 | inconclusive: 50.1 µM [inhibitor, partial curve, poor fit] | 
28 | C=CCNc1nc(C(=O)OCC(=O)N(Cc2ccccc2)C(C)C)cs1 | inconclusive: 44.7 µM [inhibitor, partial curve] and inconclusive: 112 µM [inhibitor, single point] | 
29 | COc1cc(C(C(=O)O)N(C)Cc2c(C)nn(C)c2C)ccc1N (stereo not drawn) | inconclusive: 17.8 µM [inhibitor, single point] | 
30 | Cc1cc2nn(-c3cccc4ccccc34)nc2cc1N | inconclusive: 44.7 µM [inhibitor, partial curve, poor fit] | 
31 | CC(NC(=O)C=Cc1ccco1)C(=O)NC(Cc1ccccc1)C(N)=O (stereo not drawn) | inconclusive: 79.4 µM [inhibitor, partial curve, poor fit] | 
32 | CCOC(=O)C1CCN(Cc2coc3c(Cl)cc(Cl)cc3c2=O)CC1 | inconclusive: 0.794 µM [inhibitor, full curve, poor fit] | 
33 | COc1ccc(Nc2ccc3cc(S(=O)(=O)N4CCCC4)ccc3n2)cc1Cl | inactive | 
34 | COc1ccc(C23CC4CC(CC(C(=O)N(C)Cc5ccc(OC)c(OC)c5)(C4)C2)C3)cc1 | inactive | 
35 | N/C(CS(=O)(=O)c1ccccn1)=N\OC(=O)c1ccccc1Cl | inconclusive: 14.1 µM [inhibitor, partial curve, poor fit] | 
36 | COc1ccccc1OCC(=O)N(Cc1ccc(N(C)C)cc1)CC1CCCO1 (stereo not drawn) | inactive | 
37 | CN(C)c1nc(=NCc2cccs2)ss1 | active: 15.8 µM | 
38 | Cc1noc(NS(=O)(=O)c2ccc(N/C=C\C(=O)c3cccc4ccccc34)cc2)c1C | inconclusive: 56.2 µM [inhibitor, partial curve, poor fit] | 
39 | CCCNC(=O)c1noc2c1CCc1cc(OC)ccc1-2 | inactive | 
40 | Cc1cc(C)n(CC(=O)N2CCC(c3nc(CCOCC4CCCC4)no3)C2)n1 (stereo not drawn) | inactive | 
41 | NC(=O)CSc1nc2cc(S(=O)(=O)N3CCOCC3)ccc2o1 | inconclusive: 50.1 µM [inhibitor, single point] | 
42 | Cc1ccc2c(c1)-c1c(c(C(=O)NCc3ccc(F)cc3)nn1C)CS2 | inactive | 
43 | CSc1ccccc1NC(=O)COc1ccc(Cl)cc1C | inactive | 

A different layout for part of the listing above:
Row	SMILES	Potency	activity change, negative = inhibition
8	Cc1ccc(-c2noc(C3CCCN(S(=O)(=O)c4ccc5ccccc5c4)C3)n2)o1 (stereo not drawn)	inconclusive: 10 µM [inhibitor, full curve]	
32	CCOC(=O)C1CCN(Cc2coc3c(Cl)cc(Cl)cc3c2=O)CC1	inconclusive: 0.794 µM [inhibitor, full curve, poor fit]	
